{
  "sequences": {"note": "The chains behind the UniProt entries cited, without tags or fusion partners.", "UniProt O75923": "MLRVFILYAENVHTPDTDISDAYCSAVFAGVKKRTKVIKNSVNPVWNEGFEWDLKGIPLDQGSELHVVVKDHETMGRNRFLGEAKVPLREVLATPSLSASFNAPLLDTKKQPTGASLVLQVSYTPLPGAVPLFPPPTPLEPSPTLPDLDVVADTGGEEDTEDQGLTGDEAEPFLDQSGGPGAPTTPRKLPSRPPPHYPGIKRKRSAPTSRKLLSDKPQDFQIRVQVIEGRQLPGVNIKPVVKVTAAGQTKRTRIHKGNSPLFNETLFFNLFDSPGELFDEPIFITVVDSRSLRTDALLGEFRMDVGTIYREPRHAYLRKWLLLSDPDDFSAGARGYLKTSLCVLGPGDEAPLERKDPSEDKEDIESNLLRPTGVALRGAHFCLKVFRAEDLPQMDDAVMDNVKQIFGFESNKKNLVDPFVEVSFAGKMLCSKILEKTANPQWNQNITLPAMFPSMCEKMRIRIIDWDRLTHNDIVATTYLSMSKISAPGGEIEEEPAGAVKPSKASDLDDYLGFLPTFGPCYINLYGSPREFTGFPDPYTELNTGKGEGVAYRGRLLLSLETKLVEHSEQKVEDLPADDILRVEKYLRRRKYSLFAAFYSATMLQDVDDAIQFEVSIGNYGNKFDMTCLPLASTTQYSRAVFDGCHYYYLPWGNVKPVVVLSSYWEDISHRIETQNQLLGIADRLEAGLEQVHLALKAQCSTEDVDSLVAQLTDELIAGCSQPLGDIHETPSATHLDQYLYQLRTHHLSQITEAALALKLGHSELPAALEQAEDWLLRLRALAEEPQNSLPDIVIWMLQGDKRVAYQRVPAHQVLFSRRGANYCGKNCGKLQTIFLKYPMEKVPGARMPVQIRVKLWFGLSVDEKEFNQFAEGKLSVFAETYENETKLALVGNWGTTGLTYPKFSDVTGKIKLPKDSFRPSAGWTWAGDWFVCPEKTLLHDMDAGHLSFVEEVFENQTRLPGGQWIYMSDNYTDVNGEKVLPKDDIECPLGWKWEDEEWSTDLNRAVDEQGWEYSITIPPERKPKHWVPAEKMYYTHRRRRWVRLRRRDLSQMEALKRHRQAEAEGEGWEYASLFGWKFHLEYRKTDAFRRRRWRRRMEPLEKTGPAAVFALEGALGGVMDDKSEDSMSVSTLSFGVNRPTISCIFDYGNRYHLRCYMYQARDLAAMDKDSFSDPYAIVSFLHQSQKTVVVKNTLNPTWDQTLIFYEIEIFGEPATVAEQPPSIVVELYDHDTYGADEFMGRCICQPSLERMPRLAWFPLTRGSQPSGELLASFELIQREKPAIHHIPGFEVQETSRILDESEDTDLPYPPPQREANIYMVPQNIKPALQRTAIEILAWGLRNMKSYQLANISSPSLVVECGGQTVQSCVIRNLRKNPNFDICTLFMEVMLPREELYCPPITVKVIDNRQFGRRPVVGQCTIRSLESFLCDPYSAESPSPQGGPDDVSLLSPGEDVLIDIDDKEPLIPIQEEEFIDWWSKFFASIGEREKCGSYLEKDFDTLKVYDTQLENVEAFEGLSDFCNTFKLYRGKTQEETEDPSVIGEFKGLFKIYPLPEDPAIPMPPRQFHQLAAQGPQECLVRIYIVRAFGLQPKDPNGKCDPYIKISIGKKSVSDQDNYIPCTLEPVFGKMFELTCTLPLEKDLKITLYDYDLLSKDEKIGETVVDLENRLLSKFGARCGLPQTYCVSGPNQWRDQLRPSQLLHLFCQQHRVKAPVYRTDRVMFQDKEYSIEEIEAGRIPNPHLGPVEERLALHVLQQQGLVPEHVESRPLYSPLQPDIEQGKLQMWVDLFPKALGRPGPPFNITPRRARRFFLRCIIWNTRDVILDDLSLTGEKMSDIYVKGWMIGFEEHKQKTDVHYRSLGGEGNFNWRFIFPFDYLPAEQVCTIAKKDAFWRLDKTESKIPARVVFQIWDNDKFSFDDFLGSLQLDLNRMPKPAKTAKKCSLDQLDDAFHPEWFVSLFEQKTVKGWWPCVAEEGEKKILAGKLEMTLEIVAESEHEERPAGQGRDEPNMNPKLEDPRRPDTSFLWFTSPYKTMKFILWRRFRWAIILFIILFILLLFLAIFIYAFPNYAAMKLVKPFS", "UniProt Q9ESD7": "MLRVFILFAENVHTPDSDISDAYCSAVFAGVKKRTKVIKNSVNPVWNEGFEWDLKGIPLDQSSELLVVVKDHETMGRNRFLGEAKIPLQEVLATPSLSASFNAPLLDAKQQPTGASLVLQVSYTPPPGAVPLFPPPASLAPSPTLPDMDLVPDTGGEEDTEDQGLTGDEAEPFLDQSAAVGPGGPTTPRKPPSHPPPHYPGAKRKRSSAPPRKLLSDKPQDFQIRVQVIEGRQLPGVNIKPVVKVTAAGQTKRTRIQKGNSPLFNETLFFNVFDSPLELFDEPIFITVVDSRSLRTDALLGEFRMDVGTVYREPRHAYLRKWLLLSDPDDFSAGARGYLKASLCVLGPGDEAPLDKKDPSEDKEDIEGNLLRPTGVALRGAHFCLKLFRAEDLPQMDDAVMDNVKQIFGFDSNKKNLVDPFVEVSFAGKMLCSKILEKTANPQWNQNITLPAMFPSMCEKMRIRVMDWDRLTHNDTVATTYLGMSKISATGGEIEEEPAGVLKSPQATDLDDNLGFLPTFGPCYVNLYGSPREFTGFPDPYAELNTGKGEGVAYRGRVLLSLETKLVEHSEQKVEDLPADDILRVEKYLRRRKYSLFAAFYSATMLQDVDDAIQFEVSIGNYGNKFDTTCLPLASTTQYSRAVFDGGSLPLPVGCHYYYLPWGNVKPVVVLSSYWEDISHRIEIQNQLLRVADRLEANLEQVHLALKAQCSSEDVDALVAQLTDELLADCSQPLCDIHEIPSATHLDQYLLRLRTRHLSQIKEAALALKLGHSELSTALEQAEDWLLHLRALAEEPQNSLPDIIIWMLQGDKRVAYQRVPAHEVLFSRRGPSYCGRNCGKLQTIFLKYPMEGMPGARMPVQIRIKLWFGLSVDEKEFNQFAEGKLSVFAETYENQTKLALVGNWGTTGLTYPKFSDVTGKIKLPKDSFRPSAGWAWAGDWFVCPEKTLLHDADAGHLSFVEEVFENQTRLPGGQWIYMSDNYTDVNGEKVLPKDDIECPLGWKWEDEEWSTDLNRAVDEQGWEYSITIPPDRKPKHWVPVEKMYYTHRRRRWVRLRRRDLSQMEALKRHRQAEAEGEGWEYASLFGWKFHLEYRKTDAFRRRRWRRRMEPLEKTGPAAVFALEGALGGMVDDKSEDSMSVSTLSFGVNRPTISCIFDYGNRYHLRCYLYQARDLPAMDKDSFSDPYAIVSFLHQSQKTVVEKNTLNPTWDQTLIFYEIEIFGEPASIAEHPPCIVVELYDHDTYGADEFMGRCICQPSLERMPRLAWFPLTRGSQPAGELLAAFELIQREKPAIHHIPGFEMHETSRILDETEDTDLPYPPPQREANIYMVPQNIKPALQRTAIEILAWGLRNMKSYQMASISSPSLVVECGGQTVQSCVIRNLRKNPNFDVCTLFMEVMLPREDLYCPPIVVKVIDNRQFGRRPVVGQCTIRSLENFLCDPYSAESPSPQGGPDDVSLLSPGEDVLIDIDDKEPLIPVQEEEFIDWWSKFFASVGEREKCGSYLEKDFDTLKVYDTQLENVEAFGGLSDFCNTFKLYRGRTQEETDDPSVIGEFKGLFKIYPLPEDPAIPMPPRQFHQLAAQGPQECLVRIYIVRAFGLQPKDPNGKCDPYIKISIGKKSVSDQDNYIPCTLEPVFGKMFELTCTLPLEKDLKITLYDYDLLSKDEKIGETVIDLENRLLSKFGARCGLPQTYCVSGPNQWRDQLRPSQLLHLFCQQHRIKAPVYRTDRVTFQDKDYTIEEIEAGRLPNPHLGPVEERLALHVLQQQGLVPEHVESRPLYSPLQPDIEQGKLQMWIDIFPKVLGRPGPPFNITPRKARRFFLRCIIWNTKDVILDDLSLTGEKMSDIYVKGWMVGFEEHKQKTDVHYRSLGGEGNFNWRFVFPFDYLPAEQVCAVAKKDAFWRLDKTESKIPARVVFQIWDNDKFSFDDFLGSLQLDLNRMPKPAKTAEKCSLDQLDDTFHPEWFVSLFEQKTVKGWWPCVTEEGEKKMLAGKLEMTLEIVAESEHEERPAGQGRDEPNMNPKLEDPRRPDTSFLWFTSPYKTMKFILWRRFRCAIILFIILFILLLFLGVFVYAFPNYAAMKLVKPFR", "UniProt P07356": "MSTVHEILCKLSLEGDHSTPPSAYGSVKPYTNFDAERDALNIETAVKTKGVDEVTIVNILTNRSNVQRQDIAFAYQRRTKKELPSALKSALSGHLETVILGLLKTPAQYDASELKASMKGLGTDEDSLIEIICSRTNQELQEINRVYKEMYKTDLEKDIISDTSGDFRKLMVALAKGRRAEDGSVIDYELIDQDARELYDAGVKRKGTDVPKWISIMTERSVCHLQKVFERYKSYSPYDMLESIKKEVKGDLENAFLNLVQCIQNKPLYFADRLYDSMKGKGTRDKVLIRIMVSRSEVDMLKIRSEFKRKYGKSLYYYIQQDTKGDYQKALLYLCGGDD", "UniProt O08788": "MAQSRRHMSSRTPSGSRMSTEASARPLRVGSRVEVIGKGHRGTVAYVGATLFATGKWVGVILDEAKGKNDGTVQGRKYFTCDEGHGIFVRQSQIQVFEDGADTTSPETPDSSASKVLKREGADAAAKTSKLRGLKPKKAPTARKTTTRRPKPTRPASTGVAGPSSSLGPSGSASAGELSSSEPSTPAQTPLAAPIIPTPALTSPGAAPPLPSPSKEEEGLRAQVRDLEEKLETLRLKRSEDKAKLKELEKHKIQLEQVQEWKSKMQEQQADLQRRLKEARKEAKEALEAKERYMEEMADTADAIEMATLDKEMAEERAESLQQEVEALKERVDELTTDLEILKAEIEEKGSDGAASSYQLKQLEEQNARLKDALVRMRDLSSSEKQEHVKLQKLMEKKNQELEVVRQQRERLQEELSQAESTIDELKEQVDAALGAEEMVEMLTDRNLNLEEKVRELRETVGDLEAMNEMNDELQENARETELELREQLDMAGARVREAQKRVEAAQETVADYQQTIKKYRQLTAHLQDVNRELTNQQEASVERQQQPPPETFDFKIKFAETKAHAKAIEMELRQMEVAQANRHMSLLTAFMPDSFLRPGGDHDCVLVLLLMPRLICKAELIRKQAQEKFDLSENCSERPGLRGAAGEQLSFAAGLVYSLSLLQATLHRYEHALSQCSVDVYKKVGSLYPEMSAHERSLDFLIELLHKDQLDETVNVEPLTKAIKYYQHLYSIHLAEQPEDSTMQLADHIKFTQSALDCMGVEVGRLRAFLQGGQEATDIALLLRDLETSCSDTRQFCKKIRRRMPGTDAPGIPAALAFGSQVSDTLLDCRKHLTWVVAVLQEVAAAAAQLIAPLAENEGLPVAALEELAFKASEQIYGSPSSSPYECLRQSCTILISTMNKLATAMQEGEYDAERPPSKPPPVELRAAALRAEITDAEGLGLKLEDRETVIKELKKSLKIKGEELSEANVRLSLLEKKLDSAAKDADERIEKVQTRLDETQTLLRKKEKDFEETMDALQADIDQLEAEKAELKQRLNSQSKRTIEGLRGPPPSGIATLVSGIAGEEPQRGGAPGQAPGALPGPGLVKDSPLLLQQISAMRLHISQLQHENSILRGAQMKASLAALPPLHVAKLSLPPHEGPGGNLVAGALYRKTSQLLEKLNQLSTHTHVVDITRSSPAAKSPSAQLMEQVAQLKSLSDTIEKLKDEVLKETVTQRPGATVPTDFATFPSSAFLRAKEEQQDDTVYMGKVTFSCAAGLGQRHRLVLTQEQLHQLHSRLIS", "UniProt Q9JKS4": "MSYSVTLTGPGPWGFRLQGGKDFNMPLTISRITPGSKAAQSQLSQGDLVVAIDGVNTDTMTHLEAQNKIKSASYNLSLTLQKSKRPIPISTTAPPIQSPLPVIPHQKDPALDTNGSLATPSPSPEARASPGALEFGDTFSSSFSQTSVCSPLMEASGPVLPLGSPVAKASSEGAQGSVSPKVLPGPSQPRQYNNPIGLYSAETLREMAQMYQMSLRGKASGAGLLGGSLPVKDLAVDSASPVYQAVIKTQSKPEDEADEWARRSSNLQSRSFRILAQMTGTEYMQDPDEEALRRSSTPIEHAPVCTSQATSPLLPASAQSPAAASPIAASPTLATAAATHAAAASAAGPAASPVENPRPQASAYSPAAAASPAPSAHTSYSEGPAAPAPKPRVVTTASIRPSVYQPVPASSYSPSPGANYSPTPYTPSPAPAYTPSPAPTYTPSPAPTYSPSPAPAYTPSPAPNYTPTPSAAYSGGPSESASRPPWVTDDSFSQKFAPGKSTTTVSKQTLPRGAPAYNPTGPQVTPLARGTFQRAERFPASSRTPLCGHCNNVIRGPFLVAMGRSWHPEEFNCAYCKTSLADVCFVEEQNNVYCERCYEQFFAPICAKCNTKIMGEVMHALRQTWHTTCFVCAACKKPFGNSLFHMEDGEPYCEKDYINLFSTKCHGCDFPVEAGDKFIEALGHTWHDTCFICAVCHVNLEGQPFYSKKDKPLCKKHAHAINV"},
  "source": "paper PMC2974636",
  "note": "No constants are given. Whether binding was seen depends on the method and setting. In cells and extracts the contact can be indirect. These calls come from enrichment with a bait or labelling near it, and not all partners need be listed.",
  "data": [
    {"target": "Dysferlin (endogenous, human skeletal muscle tissue) (human (endogenous in skeletal muscle)) (UniProt O75923)", "assay": "affinity purification with mass spectrometry; HCAb H7 IP of endogenous dysferlin from human skeletal muscle tissue homogenised in CHAPS buffer; SDS-PAGE, in-gel trypsin digestion, nano LC ESI MS/MS", "values": [
      {"molecule": "ATP synthase (ATP5b) (endogenous, human skeletal muscle tissue) (from UniProt P06576 48-529)", "binding": "binds"},
      {"molecule": "DCTN1 (endogenous, human skeletal muscle tissue) (from UniProt Q14203 1-1278)", "binding": "binds"},
      {"molecule": "EIF3B (endogenous, human skeletal muscle tissue) (from UniProt P55884 1-814)", "binding": "binds"},
      {"molecule": "HSP90B1 (endogenous, human skeletal muscle tissue) (from UniProt P14625 22-803)", "binding": "binds"},
      {"molecule": "HSPA5 (endogenous, human skeletal muscle tissue) (from UniProt P11021 19-654)", "binding": "binds"},
      {"molecule": "LMNA (endogenous, human skeletal muscle tissue) (from UniProt P02545 1-646)", "binding": "binds"},
      {"molecule": "Myoferlin (endogenous, human skeletal muscle tissue) (from UniProt Q9NZM1 1-2061)", "binding": "binds"},
      {"molecule": "STAT1 (endogenous, human skeletal muscle tissue) (from UniProt P42224 1-750)", "binding": "binds"}
    ]},
    {"target": "Dysferlin (endogenous; source of the IP not stated: IM2 myoblasts, IM2 myotubes or human skeletal muscle) (not stated (endogenous in mouse IM2 cells or human skeletal muscle)) (UniProt Q9ESD7)", "assay": "affinity purification with mass spectrometry; HCAb H7 IP of endogenous dysferlin, mass spectrometry; the data set (IM2 myoblasts, IM2 myotubes or human skeletal muscle) is not named in the text (Table S1)", "values": [
      {"molecule": "Mannose-6 phosphate receptor (CIMPR, or IGF2R) (from UniProt Q07113 36-2483)", "binding": "binds"},
      {"molecule": "VCP (from UniProt Q01853 1-806)", "binding": "binds"},
      {"molecule": "creatine kinase B (from UniProt Q04447 1-381)", "binding": "binds"},
      {"molecule": "creatine kinase M (from UniProt P07310 1-381)", "binding": "binds"},
      {"molecule": "clathrin-α (CLTA) (protein, UniProt O08585 1-235) MAELDPFGAPAGAPGGPALGNGVAGAGEEDPAAAFLAQQESEIAGIENDEAFAILDGGAPGRATRRAAGGPDAVDGVMNGEYYQESNGPTDSYAAISEVDRLQSEPESIRKWREEQTERLEALDANSRKQEAEWKEKAIKELEEWYARQDEQLQKTKANNRVADEAFYKQPFADLIGYVAAEEAFVNDIDESSPGTEWERVARLCDFNPKSSKQAKDVSRMRSVLISLKQAPLVH", "binding": "binds"}
    ]},
    {"target": "Dysferlin (endogenous, mouse IM2 myoblasts and myotubes) (mouse (endogenous in IM2)) (UniProt Q9ESD7)", "assay": "affinity purification with mass spectrometry; HCAb H7 IP of endogenous dysferlin from IM2 myoblast and myotube (5 days post-differentiation) lysates in Triton buffer; SDS-PAGE, in-gel trypsin digestion, nano LC ESI MS/MS", "values": [
      {"molecule": "TRIM72 (endogenous, mouse IM2 myotubes) (protein, UniProt Q1XH17 1-477) MSAAPGLLRQELSCPLCLQLFDAPVTAECGHSFCRACLIRVAGEPAADGTVACPCCQAPTRPQALSTNLQLSRLVEGLAQVPQGHCEEHLDPLSIYCEQDRTLVCGVCASLGSHRGHRLLPAAEAQARLKTQLPQQKMQLQEACMRKEKTVAVLEHQLVEVEETVRQFRGAVGEQLGKMRMFLAALESSLDREAERVRGDAGVALRRELSSLNSYLEQLRQMEKVLEEVADKPQTEFLMKFCLVTSRLQKILSESPPPARLDIQLPVISDDFKFQVWKKMFRALMPALEELTFDPSSAHPSLVVSSSGRRVECSDQKAPPAGEDTRQFDKAVAVVAQQLLSQGEHYWEVEVGDKPRWALGVMAADASRRGRLHAVPSQGLWLLGLRDGKILEAHVEAKEPRALRTPERPPARIGLYLSFADGVLAFYDASNPDVLTPIFSFHERLPGPVYPIFDVCWHDKGKNAQPLLLVGPEQEQA", "binding": "binds"}
    ]},
    {"target": "Dysferlin (endogenous, mouse IM2 myoblasts and myotubes) (mouse (endogenous in IM2)) (UniProt Q9ESD7)", "assay": "affinity purification with mass spectrometry; HCAb H7 IP of endogenous dysferlin from IM2 myoblast and myotube (5 days post-differentiation) lysates in Triton buffer; SDS-PAGE, in-gel trypsin digestion, nano LC ESI MS/MS", "remark": "another data set of the same source", "values": [
      {"molecule": "ACTN2 (endogenous, mouse IM2 myotubes) (from UniProt Q9JI91 1-894)", "binding": "binds"},
      {"molecule": "ANXA2 (endogenous, mouse IM2 cells) (from UniProt P07356 1-339)", "binding": "binds"},
      {"molecule": "ATP synthase (ATP5b) (endogenous, mouse IM2 cells) (from UniProt P56480 47-529)", "binding": "binds"},
      {"molecule": "CAPZB (endogenous, mouse IM2 cells) (from UniProt P47757 1-277)", "binding": "binds"},
      {"molecule": "DCTN1 (endogenous, mouse IM2 myoblasts) (from UniProt O08788 1-1281)", "binding": "binds"},
      {"molecule": "EIF2S1 (endogenous, mouse IM2 myoblasts) (from UniProt Q6ZWX6 1-315)", "binding": "binds"},
      {"molecule": "EIF3B (endogenous, mouse IM2 cells) (from UniProt Q8JZQ9 1-803)", "binding": "binds"},
      {"molecule": "LDB3 (endogenous, mouse IM2 myotubes) (from UniProt Q9JKS4 1-723)", "binding": "binds"},
      {"molecule": "Myoferlin (endogenous, mouse IM2 cells) (from UniProt Q69ZN7 1-2048)", "binding": "binds"},
      {"molecule": "UTRN (endogenous, mouse IM2 myoblasts) (from UniProt E9Q6R7 1-3430)", "binding": "binds"},
      {"molecule": "Vinculin (endogenous, mouse IM2 cells) (from UniProt Q64727 1-1066)", "binding": "binds"}
    ]}
  ]
}
